Some of these results come from one statement about several compounds together.
molecular target: C. perfringens (CpGUS) β-Glucuronidase (Clostridium perfringens, UniProt Q8XP19); format: biochemical

Amino acid sequences for entries named in this document (tags omitted). A change or cut given only in a name is not applied to a line headed by its entry.
UniProt Q8XP19: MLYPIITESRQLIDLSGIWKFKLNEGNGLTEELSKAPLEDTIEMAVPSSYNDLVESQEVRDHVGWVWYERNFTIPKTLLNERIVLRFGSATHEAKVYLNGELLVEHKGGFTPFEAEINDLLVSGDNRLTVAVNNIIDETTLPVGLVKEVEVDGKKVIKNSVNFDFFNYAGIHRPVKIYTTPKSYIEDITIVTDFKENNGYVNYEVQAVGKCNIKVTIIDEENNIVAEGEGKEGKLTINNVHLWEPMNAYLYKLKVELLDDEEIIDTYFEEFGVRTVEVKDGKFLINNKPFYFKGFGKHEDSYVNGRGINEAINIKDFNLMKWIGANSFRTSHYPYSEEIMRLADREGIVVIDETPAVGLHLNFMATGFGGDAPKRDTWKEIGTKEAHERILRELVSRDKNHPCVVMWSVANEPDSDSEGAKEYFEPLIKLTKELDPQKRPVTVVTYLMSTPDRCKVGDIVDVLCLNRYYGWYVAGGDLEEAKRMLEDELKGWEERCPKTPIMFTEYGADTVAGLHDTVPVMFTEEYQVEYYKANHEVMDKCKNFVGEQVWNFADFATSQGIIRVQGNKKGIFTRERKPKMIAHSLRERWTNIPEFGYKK

SMILES	potency against CpGUS (in words)
OCCNc1nc(N2CCNCC2)c2sc3nc(-c4ccccc4)ccc3c2n1 [Compound 26]	reduced potency
c1ccc(-c2ccc3c(n2)sc2c(N4CCNCC4)ncnc23)cc1 [Compound 23]	reduced potency
CNc1nc(N2CCNCC2)c2sc3nc(-c4ccccc4)ccc3c2n1 [Compound 24]	reduced potency
c1ccc(-c2ccc3c(n2)sc2c(N4CCNCC4)nnnc23)cc1 [Compound 22]	reduced potency
CN(C)c1nc(N2CCNCC2)c2sc3nc(-c4ccccc4)ccc3c2n1 [Compound 25]	reduced potency
